Not every detail of the peptide structures is certain; ends, links or a residue may be inferred. No end group written: not given here.
Assays:
[1] = target: interaction between Bcl-2 and Bid (Homo sapiens, UniProt P10415); experiment: GST pull-down, competition with radiolabelled Bid for GST-Bcl-2; assay type: binding; conditions: peptide 5 to 20 μM, 35S-Bid
[2] = target: T1, interaction between Bcl-W and Bid (Homo sapiens, UniProt Q92843); experiment: GST pull-down, competition with radiolabelled Bid for GST-Bcl-W; assay type: binding; conditions: peptide 5 to 20 μM, 35S-Bid
T1 sequence (Q92843 1-193): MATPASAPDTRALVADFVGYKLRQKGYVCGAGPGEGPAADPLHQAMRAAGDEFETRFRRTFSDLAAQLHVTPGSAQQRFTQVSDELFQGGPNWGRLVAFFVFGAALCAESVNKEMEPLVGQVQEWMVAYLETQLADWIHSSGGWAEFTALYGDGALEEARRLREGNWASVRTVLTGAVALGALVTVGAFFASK

Protein sequences, listed by entry. Tags and fused reporters are not part of them.
UniProt P10415, whole entry: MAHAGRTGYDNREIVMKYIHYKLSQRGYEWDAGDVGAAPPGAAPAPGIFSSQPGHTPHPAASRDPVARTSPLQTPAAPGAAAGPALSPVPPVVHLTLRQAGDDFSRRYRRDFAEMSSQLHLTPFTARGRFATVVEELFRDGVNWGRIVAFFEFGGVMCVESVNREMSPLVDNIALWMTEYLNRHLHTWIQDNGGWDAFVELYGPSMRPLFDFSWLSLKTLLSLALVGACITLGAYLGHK

## DTRRSMVFARHLREVGDEFRSR [peptide obtained in Example 1]
[1]
  Inhibition of the interaction between Bcl-2 and Bid (autoradiographic signal of Bid): inhibits the interaction
[2]
  Inhibition of the interaction between Bcl-W and Bid (autoradiographic signal of Bid): inhibits the interaction

From patent US7459434B2, “Peptide interacting with anti-apoptotic proteins of the Bcl-2 family” (Les Laboratories Servier, priority 2003, dated 2008)
